According to paper PMC6195609:
Results are given in words; binding and its absence hold for the method and conditions named. In cells and extracts the contact can be indirect. Some results given as binding are weak or reduced against the parent protein; the word gives no strength.

Amino acid sequences for entries named in this document (tags omitted). A change or cut given only in a name is not applied to a line headed by its entry.
UniProt Q5VZM2: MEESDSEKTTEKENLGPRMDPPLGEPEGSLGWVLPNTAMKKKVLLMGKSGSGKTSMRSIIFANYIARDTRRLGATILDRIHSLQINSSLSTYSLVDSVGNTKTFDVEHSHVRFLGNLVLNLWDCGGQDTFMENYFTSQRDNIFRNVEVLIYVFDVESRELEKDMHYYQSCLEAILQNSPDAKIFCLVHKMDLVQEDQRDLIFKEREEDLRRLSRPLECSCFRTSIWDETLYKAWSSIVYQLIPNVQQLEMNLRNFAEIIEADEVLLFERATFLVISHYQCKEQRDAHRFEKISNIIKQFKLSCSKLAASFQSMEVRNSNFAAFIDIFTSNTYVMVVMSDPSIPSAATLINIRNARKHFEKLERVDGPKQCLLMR
UniProt O75140: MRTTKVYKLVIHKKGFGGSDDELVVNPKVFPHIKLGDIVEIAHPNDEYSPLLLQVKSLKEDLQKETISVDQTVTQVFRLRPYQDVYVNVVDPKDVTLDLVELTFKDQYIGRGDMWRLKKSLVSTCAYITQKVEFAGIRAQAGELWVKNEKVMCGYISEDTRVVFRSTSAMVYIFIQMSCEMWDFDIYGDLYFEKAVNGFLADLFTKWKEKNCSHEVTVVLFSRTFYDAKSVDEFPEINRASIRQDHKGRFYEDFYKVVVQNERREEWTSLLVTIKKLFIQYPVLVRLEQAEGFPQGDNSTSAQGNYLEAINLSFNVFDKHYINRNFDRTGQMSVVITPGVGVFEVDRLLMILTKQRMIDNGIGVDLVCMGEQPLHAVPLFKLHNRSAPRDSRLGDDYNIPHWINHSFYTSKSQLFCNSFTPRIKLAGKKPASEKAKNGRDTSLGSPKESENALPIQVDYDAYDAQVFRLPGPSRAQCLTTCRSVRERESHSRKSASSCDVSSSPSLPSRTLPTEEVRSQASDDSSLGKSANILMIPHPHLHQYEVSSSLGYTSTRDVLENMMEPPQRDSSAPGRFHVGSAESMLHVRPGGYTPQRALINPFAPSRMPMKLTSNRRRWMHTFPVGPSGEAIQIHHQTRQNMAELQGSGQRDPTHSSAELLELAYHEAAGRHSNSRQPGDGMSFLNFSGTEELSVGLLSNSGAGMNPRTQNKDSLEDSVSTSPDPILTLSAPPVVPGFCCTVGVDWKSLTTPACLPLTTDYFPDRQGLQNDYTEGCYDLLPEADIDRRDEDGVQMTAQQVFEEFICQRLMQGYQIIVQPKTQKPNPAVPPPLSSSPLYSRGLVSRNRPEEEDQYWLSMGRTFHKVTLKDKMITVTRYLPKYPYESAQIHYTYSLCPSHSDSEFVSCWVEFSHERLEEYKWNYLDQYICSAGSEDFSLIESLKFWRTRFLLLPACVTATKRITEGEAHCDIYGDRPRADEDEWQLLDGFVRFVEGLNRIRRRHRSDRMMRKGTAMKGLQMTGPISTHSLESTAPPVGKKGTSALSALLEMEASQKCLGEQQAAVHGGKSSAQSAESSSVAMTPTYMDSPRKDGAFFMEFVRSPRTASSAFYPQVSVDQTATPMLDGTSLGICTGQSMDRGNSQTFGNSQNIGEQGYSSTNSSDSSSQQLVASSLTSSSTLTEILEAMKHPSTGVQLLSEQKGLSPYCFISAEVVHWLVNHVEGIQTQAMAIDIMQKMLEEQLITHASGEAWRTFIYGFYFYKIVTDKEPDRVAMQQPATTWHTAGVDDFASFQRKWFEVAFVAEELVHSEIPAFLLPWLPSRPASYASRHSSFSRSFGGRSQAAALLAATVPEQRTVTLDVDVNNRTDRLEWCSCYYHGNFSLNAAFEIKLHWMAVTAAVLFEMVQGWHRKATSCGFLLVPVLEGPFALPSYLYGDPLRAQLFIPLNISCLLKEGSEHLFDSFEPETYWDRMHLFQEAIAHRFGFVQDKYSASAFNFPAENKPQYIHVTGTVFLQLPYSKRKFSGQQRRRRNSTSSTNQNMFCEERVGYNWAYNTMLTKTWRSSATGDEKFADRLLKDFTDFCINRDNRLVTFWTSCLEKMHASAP

Molecular target: RagB (endogenous) (human (endogenous in HEK293)) (UniProt Q5VZM2)
Test: co-IP; HEK293 cells transiently transfected with the components of GATOR1, with or without CA-Src, kinase-dead Src (K295R) or WT-Src, with or without PP2 (5 uM, 24 h); interaction with RagA, RagB or RagC tested (RagC immunoprecipitation in Fig. 4e, f)

## GATOR1 (transfected components Depdc5, Nprl2 and Nprl3) (from UniProt O75140 1-1603; Q8WTW4 1-380; Q12980 1-569) (complex)
  binding: binds
